Experimental data: ChEMBL document CHEMBL4316593 (Eur J Med Chem, 2019)
The source gives many values for each of these; only a part stands here.

Key:
Format in all cases: cell-based
Conditions in all cases: U-87MG ATCC
[1] = Inhibition of RTK/PI3K/AKT/mTOR signaling in human U87 cells assessed as up regulation of RPL5 gene expression at cytotoxic IC50 measured after 48 hrs relative to control
[2] = Inhibition of RTK/PI3K/AKT/mTOR signaling in human U87 cells assessed as down regulation of TBCCD1 gene expression at cytotoxic IC50 measured after 48 hrs relative to control
[3] = Inhibition of RTK/PI3K/AKT/mTOR signaling in human U87 cells assessed as up regulation of CST telomere replication complex component 1 gene expression at cytotoxic IC50 measured after 48 hrs relative to control
[4] = Inhibition of RTK/PI3K/AKT/mTOR signaling in human U87 cells assessed as up regulation of FBXL19 gene expression at cytotoxic IC50 measured after 48 hrs relative to control
[5] = Inhibition of RTK/PI3K/AKT/mTOR signaling in human U87 cells assessed as up regulation of TMEM92 gene expression at cytotoxic IC50 measured after 48 hrs relative to control
[6] = Inhibition of RTK/PI3K/AKT/mTOR signaling in human U87 cells assessed as up regulation of ACTN1 gene expression at cytotoxic IC50 measured after 48 hrs relative to control
[7] = Inhibition of RTK/PI3K/AKT/mTOR signaling in human U87 cells assessed as down regulation of COL4A3BP gene expression at cytotoxic IC50 measured after 48 hrs relative to control
[8] = Inhibition of RTK/PI3K/AKT/mTOR signaling in human U87 cells assessed as down regulation of TRIB3 gene expression at cytotoxic IC50 measured after 48 hrs relative to control
[9] = Inhibition of RTK/PI3K/AKT/mTOR signaling in human U87 cells assessed as down regulation of CCDC174 gene expression at cytotoxic IC50 measured after 48 hrs relative to control
[10] = Inhibition of RTK/PI3K/AKT/mTOR signaling in human U87 cells assessed as up regulation of digestive organ expansion factor homolog (zebrafish) gene expression at cytotoxic IC50 measured after 48 hrs relative to control
[11] = Inhibition of RTK/PI3K/AKT/mTOR signaling in human U87 cells assessed as down regulation of AGO2 gene expression at cytotoxic IC50 measured after 48 hrs relative to control
[12] = Inhibition of RTK/PI3K/AKT/mTOR signaling in human U87 cells assessed as up regulation of TSPAN1 gene expression at cytotoxic IC50 measured after 48 hrs relative to control
[13] = Inhibition of RTK/PI3K/AKT/mTOR signaling in human U87 cells assessed as down regulation of GYG1 gene expression at cytotoxic IC50 measured after 48 hrs relative to control
[14] = Inhibition of RTK/PI3K/AKT/mTOR signaling in human U87 cells assessed as up regulation of C10orf10 gene expression at cytotoxic IC50 measured after 48 hrs relative to control
[15] = Inhibition of RTK/PI3K/AKT/mTOR signaling in human U87 cells assessed as down regulation of CFL1 gene expression at cytotoxic IC50 measured after 48 hrs relative to control
[16] = Inhibition of RTK/PI3K/AKT/mTOR signaling in human U87 cells assessed as down regulation of THBS1 gene expression at cytotoxic IC50 measured after 48 hrs relative to control
[17] = Inhibition of RTK/PI3K/AKT/mTOR signaling in human U87 cells assessed as down regulation of KIAA1468 gene expression at cytotoxic IC50 measured after 48 hrs relative to control
[18] = Inhibition of RTK/PI3K/AKT/mTOR signaling in human U87 cells assessed as up regulation of endothelin converting enzyme 1 gene expression at cytotoxic IC50 measured after 48 hrs relative to control
[19] = Inhibition of RTK/PI3K/AKT/mTOR signaling in human U87 cells assessed as up regulation of transmembrane protein 18 gene expression at cytotoxic IC50 measured after 48 hrs relative to control
[20] = Inhibition of RTK/PI3K/AKT/mTOR signaling in human U87 cells assessed as down regulation of DCAF13 gene expression at cytotoxic IC50 measured after 48 hrs relative to control
[21] = Inhibition of RTK/PI3K/AKT/mTOR signaling in human U87 cells assessed as up regulation of MIR210HG gene expression at cytotoxic IC50 measured after 48 hrs relative to control
[22] = Inhibition of RTK/PI3K/AKT/mTOR signaling in human U87 cells assessed as down regulation of CHSY3 gene expression at cytotoxic IC50 measured after 48 hrs relative to control
[23] = Inhibition of RTK/PI3K/AKT/mTOR signaling in human U87 cells assessed as up regulation of EIF3D gene expression at cytotoxic IC50 measured after 48 hrs relative to control
[24] = Inhibition of RTK/PI3K/AKT/mTOR signaling in human U87 cells assessed as down regulation of SEC23B gene expression at cytotoxic IC50 measured after 48 hrs relative to control
[25] = Inhibition of RTK/PI3K/AKT/mTOR signaling in human U87 cells assessed as down regulation of ANKRD52 gene expression at cytotoxic IC50 measured after 48 hrs relative to control
[26] = Inhibition of RTK/PI3K/AKT/mTOR signaling in human U87 cells assessed as down regulation of STK10 gene expression at cytotoxic IC50 measured after 48 hrs relative to control
[27] = Inhibition of RTK/PI3K/AKT/mTOR signaling in human U87 cells assessed as down regulation of ABHD5 gene expression at cytotoxic IC50 measured after 48 hrs relative to control
[28] = Inhibition of RTK/PI3K/AKT/mTOR signaling in human U87 cells assessed as down regulation of CELF1 gene expression at cytotoxic IC50 measured after 48 hrs relative to control
[29] = Inhibition of RTK/PI3K/AKT/mTOR signaling in human U87 cells assessed as up regulation of aminopeptidase puromycin sensitive gene expression at cytotoxic IC50 measured after 48 hrs relative to control
[30] = Inhibition of RTK/PI3K/AKT/mTOR signaling in human U87 cells assessed as down regulation of DENND2C gene expression at cytotoxic IC50 measured after 48 hrs relative to control
[31] = Inhibition of RTK/PI3K/AKT/mTOR signaling in human U87 cells assessed as down regulation of MORC4 gene expression at cytotoxic IC50 measured after 48 hrs relative to control
[32] = Inhibition of RTK/PI3K/AKT/mTOR signaling in human U87 cells assessed as down regulation of AFF4 gene expression at cytotoxic IC50 measured after 48 hrs relative to control

In the case of `CC(=O)C(=NNc1ccccc1C#N)C(C)=O`, the log2FC [1] was 0.44, the log2FC [2] was -1.1 and the log2FC [3] was 0.712. It also gave a log2FC [4] of 1.67, a log2FC [5] of 2.24 and a log2FC [6] of 0.503. The log2FC [7] was -1.01, the log2FC [8] was -0.541 and the log2FC [9] was -1.05. It also gave a log2FC [10] of 0.744, a log2FC [11] of -0.712 and a log2FC [12] of 1.85. For the same compound, the log2FC [13] was -0.591, the log2FC [14] was 1.83 and the log2FC [15] was -0.781. The log2FC [16] was -1.45, the log2FC [17] was -1.13 and the log2FC [18] was 0.876. For the same compound, the log2FC [19] was 0.721, the log2FC [20] was -0.441 and the log2FC [21] was 3.5. For the same compound, the log2FC [22] was -1.69, the log2FC [23] was 0.457 and the log2FC [24] was -0.776. For the same compound, the log2FC [25] was -0.477, the log2FC [26] was -1.25 and the log2FC [27] was -2.16. For the same compound, the log2FC [28] was -0.445, the log2FC [29] was 0.772 and the log2FC [30] was -1.97. The log2FC [31] was -0.926 and the log2FC [32] was -0.86.
